Values from PubChem BioAssay AID1224830 (NIAID, 2016).
Assay: 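Host factors that control LPS-induced TNF expression in human macrophages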 (primary screen). Cells: human THP-1 monocytic leukaemia cells, TNF dual-luciferase reporter clone, PMA-differentiated to macrophage-like cells. Reagents: siRNA pool against human genes, 50 nM. Timing: LPS for 4 h, given about 3 days after siRNA transfection. Treatment: bacterial LPS (TLR4 ligand), 10 ng/ml. Measured: 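TNF firefly reporter luminescence divided by renilla, normalised to the plate median, then turned into a robust z-score for each replicate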. Direction: TNF reporter robust z-score: higher = stronger TNF reporter response to LPS. Active means: 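Each well counts as active if its z-score is over 2.8 or under -1.5; controls are left without a call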.
The deposit covers about 18,000 reagents; below is an unselected part. Over the whole deposit, about 2,900 (16%) got an active call. 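Calls are made per well; low scores hint the gene aids the LPS response, high scores that it dampens it.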 Unmarked entries are inactive. Repeated entries: four replicate wells of each siRNA pool.

gene symbol	TNF reporter robust z-score
SCN2A	-0.16
SCN2A	-0.62
SCN2A	0.42
SCN2A	-1.13
SACM1L	2.25
SACM1L	1.57
SACM1L	0.69
SACM1L	0.65
MTMR11	0.72
MTMR11	0.43
MTMR11	0.26
MTMR11	2.98 (active)
CRH	0.44
CRH	1.5
CRH	0.96
CRH	-0.85
MRPL53	2.54
MRPL53	-0.19
MRPL53	-1.19
MRPL53	-1.1
PRSS54	-0.32
PRSS54	0.35
PRSS54	0.25
PRSS54	0.1
MTFR2	0.55
MTFR2	2.05
MTFR2	1.55
MTFR2	-0.26
RAB3GAP2	0.26
RAB3GAP2	0.61
RAB3GAP2	-1.26
RAB3GAP2	0.04
TMEM121	-0.09
TMEM121	0.22
TMEM121	-0.45
TMEM121	-1.04
LURAP1	0.64
LURAP1	-0.45
LURAP1	-0.17
LURAP1	0.44
LCA5	-0.09
LCA5	-0.69
LCA5	0.22
LCA5	-0.75
PCDH18	1.27
PCDH18	0.02
PCDH18	-0.78
PCDH18	-0.49
KRTAP5-10	-0.67
KRTAP5-10	0.35
KRTAP5-10	-0.29
KRTAP5-10	0.24
FLVCR1	-0.03
FLVCR1	-0.2
FLVCR1	0.17
FLVCR1	0.25
PCDH19	0.45
PCDH19	1.67
PCDH19	0.02
PCDH19	-1.1
OSBPL10	0.18
OSBPL10	2.18
OSBPL10	2.03
JAG2	-0.9
JAG2	-0.53
JAG2	-0.26
JAG2	0.18
MYOZ2	-0.04
MYOZ2	-0.29
MYOZ2	0.8
MYOZ2	-0.09

Sorted by “TNF reporter robust z-score” (descending): 18 of the entries above
gene symbol	TNF reporter robust z-score
PCDH19	1.67
PCDH18	1.27
PCDH19	0.45
KRTAP5-10	0.35
FLVCR1	0.25
KRTAP5-10	0.24
LCA5	0.22
FLVCR1	0.17
PCDH18	0.02
PCDH19	0.02
FLVCR1	-0.03
FLVCR1	-0.2
KRTAP5-10	-0.29
PCDH18	-0.49
KRTAP5-10	-0.67
LCA5	-0.69
LCA5	-0.75
PCDH18	-0.78

The list goes on:
gene symbol	TNF reporter robust z-score
KCNH1	-0.96
KCNH1	0.85
KCNH1	-0.31
KCNH1	0.02
ZNF782	-1.33
ZNF782	-0.83
ZNF782	-1.01
ZNF782	-0.96
TRAF3	0.02
TRAF3	-0.96
TRAF3	-0.8
TRAF3	0.58
SOX10	1.05
SOX10	-0.02
SOX10	0.91
SOX10	1.19
GCA	-0.18
GCA	0.09
GCA	0.41
GCA	1
CCDC138	1.07
CCDC138	-0.35
CCDC138	0.75
CCDC138	1.64
KDM2A	0.87
KDM2A	-1.07
KDM2A	-1.32
KDM2A	-1.18
CTDSPL	0.6
CTDSPL	2
CTDSPL	2.95 (active)
CTDSPL	4.78 (active)
LSM12	1.94
LSM12	2.3
LSM12	2.06
LSM12	1.58
SMPD2	-1.24
SMPD2	-1.51 (active)
SMPD2	-1.68 (active)
SMPD2	-1.27
HIPK4	2.19
HIPK4	3.36 (active)
HIPK4	0.56
HIPK4	2.06
KIAA1328	1.8
KIAA1328	1.89
KIAA1328	1.65
KIAA1328	1.53
ZNF132	-0.69
ZNF132	-0.77
ZNF132	-1.36
ZNF132	-1.03
ZFP30	0.18
ZFP30	0.43
ZFP30	0.56
ZFP30	-0.02
NUP42	0.67
NUP42	0.59
NUP42	-0.99
NUP42	-0.65
S100Z	0.12
S100Z	1.16
S100Z	-0.27
S100Z	0.14
VNN2	-0.74
VNN2	-0.83
VNN2	-0.86
VNN2	0.09
UBE2L6	-0.55
UBE2L6	-0.24
UBE2L6	-0.88
UBE2L6	-0.7
